In paper PMC12421383, “Autophosphorylation of conserved yeast and human casein kinase 1 isozymes regulates Elongator-dependent tRNA modifications” (Nucleic Acids Research, 2025):

Target: GST-Elp1 N-terminal region (construct of Fig. 2F) (Saccharomyces cerevisiae (budding yeast))
Test: pull-down; 20 μg GST-tagged bait mixed with equimolar Hrr25 variant, GST Sepharose 4B, 1 h at 4°C; 20 mM Tris pH 7.5, 150 mM NaCl, 0.5% Tween 20, 2 mM DTT, 2 mM MgCl2; three washes; SDS-PAGE and WB with Hrr25-specific antibodies; both purified

B1: full-length (FL) yeast Hrr25, nonphosphorylated (enzyme, Saccharomyces cerevisiae (budding yeast), UniProt P29295 1-494, looked up)
chain: MDLRVGRKFRIGRKIGSGSFGDIYHGTNLISGEEVAIKLESIRSRHPQLDYESRVYRYLSGGVGIPFIRWFGREGEYNAMVIDLLGPSLEDLFNYCHRRFSFKTVIMLALQMFCRIQYIHGRSFIHRDIKPDNFLMGVGRRGSTVHVIDFGLSKKYRDFNTHRHIPYRENKSLTGTARYASVNTHLGIEQSRRDDLESLGYVLIYFCKGSLPWQGLKATTKKQKYDRIMEKKLNVSVETLCSGLPLEFQEYMAYCKNLKFDEKPDYLFLARLFKDLSIKLEYHNDHLFDWTMLRYTKAMVEKQRDLLIEKGDLNANSNAASASNSTDNKSETFNKIKLLAMKKFPTHFHYYKNEDKHNPSPEEIKQQTILNNNAASSLPEELLNALDKGMENLRQQQPQQQVQSSQPQPQPQQLQQQPNGQRPNYYPEPLLQQQQRDSQEQQQQVPMATTRATQYPPQINSNNFNTNQASVPPQMRSNPQQPPQDKPAGQSIWL
notes: cloned into pFastBacHT A with a TEV cleavage site after the tag; also called FL Hrr25; Hrr25 WT; source: Trichoplusia ni High Five cells, purified (NiNTA, gel filtration)
For B1, the binding was “binds weakly”.

No constants are given. Whether binding was seen depends on the method and setting. A result given as binding can be weak or reduced; the word gives no strength.
